The list does not hold the whole screen: it gathers tests that were run many times, whatever their T/C, doses with no T/C, and many T/C values between a quarter and a half above the control. Other doses and runs of a compound stand elsewhere. T/C is the treated group as % of the vehicle group. Some entries give survivors of the animals treated and no T/C: the source holds a T/C of zero for them, seemingly a mark for toxic or unscored doses. Some doses without a T/C left all or most animals alive at the check, yet need not have been tolerated: the source hardly ever lists a survival T/C far under the control, and the zero likely stands for such cases as well. Survivors were counted at the toxicity check, usually on the fifth day, unless a day is given; later deaths do not show. Schedules are NCI's codes, taken here to give the interval after Q, in days (D) or hours (H), and the number of doses after X. Some schedule codes hold Z or #, which are not explained here. Where survival is the endpoint, this PubChem deposit counts one and a half times the control or more as active, and values a quarter to a half above the control carry no call in these data; other NCI protocols may use other cut-offs. Some entries hold several experiments; their values stand side by side, smallest first. Some T/C values are followed by the survivors on the day toxicity was checked, most often the fifth; without a count, all were alive then.
Tested on: L1210 leukemia ip in BDF1 mice, survival T/C
Assay: NCI In Vivo Anticancer Drug Screen. Data for tumor model L1210 Leukemia (intraperitoneal) in B6D2F1 (BDF1) mice
Settings: T/C endpoint: mean survival time, higher T/C = longer survival

O=C(O)c1[nH]c(=O)[nH]c(=O)c1F
T/C (dose: 1.5 mg/kg/injection, schedule: Q01DX005 (oral), vehicle: saline): 136 % of control | T/C (dose: 1.5 mg/kg/injection, schedule: Q01DX015 (ip), vehicle: saline): 143 and 148 % of control | T/C (dose: 1.5 mg/kg/injection, schedule: Q01DX015 (oral), vehicle: saline): 142 % of control | T/C (dose: 2.0 mg/kg/injection, schedule: Q01DX009 (ip), vehicle: saline with Tween-80): 127 % of control | T/C (dose: 2.0 mg/kg/injection, schedule: Q01DX009 (ip), vehicle: saline): 133 % of control | T/C (dose: 2.5 mg/kg/injection, schedule: Q01DX009 (ip), vehicle: saline): 135 % of control | T/C (dose: 3.0 mg/kg/injection, schedule: Q01DX009 (ip), vehicle: saline): 146 % of control | T/C (dose: 3.0 mg/kg/injection, schedule: Q01DX009 (oral), vehicle: saline): 137 % of control | T/C (dose: 3.0 mg/kg/injection, schedule: Q01DX015 (im), vehicle: saline): 131 % of control | T/C (dose: 3.0 mg/kg/injection, schedule: Q01DX015 (sc), vehicle: saline): 134 % of control | T/C (dose: 3.0 mg/kg/injection, schedule: Q## X024 (oral), vehicle: saline): 136 % of control | T/C (dose: 5.0 mg/kg/injection, schedule: Q01DX009 (ip), vehicle: saline): 147 % of control | T/C (dose: 5.0 mg/kg/injection, schedule: Q01DX015 (ip), vehicle: carboxymethylcellulose (CMC)): 145 % of control | T/C (dose: 6.0 mg/kg/injection, schedule: Q01DX009 (ip), vehicle: saline): 126 % of control | T/C (dose: 6.0 mg/kg/injection, schedule: Q01DX009 (oral), vehicle: saline): 139 % of control | T/C (dose: 6.0 mg/kg/injection, schedule: Q01DX015 (oral), vehicle: saline): 131 % of control | T/C (dose: 7.0 mg/kg/injection, schedule: Q01DX Z (ip), vehicle: methylcellulose (MC)): 146 % of control | T/C (dose: 8.0 mg/kg/injection, schedule: Q01DX009 (ip), vehicle: saline with Tween-80): 130 % of control | T/C (dose: 8.0 mg/kg/injection, schedule: Q04DX003 (ip), vehicle: saline): 127 % of control [4 of 6 alive] | T/C (dose: 10.5 mg/kg/injection, schedule: Q## X008 (oral), vehicle: saline): 128 % of control | T/C (dose: 12.0 mg/kg/injection, schedule: Q01DX005 (oral), vehicle: saline): 143 % of control | T/C (dose: 12.0 mg/kg/injection, schedule: Q01DX009 (oral), vehicle: saline): 145 % of control | T/C (dose: 12.0 mg/kg/injection, schedule: Q01DX015 (oral), vehicle: saline): 131 % of control | T/C (dose: 12.0 mg/kg/injection, schedule: Q## X003 (oral), vehicle: saline): 138 % of control | T/C (dose: 16.0 mg/kg/injection, schedule: Q04DX003 (ip), vehicle: saline): 140 % of control | T/C (dose: 21.0 mg/kg/injection, schedule: Q## X008 (oral), vehicle: saline): 125 % of control | T/C (dose: 24.0 mg/kg/injection, schedule: Q01DX005 (oral), vehicle: saline): 137 % of control | T/C (dose: 24.0 mg/kg/injection, schedule: Q01DX006 (iv), vehicle: saline): 142 % of control | T/C (dose: 24.0 mg/kg/injection, schedule: Q01DX015 (ip), vehicle: carboxymethylcellulose (CMC)): 129 and 137 % of control | T/C (dose: 24.0 mg/kg/injection, schedule: Q01DX015 (sc), vehicle: saline): 142 % of control | survivor count (dose: 24.0 mg/kg/injection, schedule: Q01DX Z (ip), vehicle: methylcellulose (MC)): 6 of 6 | T/C (dose: 24.0 mg/kg/injection, schedule: Q## X003 (oral), vehicle: saline): 147 % of control | survivor count (dose: 24.0 mg/kg/injection, schedule: Q## X040 (oral), vehicle: saline): 5 of 6 | T/C (dose: 42.0 mg/kg/injection, schedule: Q01DX001 (oral), vehicle: saline): 127 % of control | T/C (dose: 42.0 mg/kg/injection, schedule: Q## X008 (oral), vehicle: saline): 127 % of control | T/C (dose: 48.0 mg/kg/injection, schedule: Q01DX006 (iv), vehicle: saline): 140 % of control | survivor count (dose: 48.0 mg/kg/injection, schedule: Q## X040 (oral), vehicle: saline): 4 of 6 | T/C (dose: 84.0 mg/kg/injection, schedule: Q## X008 (oral), vehicle: saline): 135 % of control | survivor count (dose: 96.0 mg/kg/injection, schedule: Q01DX015 (ip), vehicle: carboxymethylcellulose (CMC)): 5 of 6 | survivor count (dose: 96.0 mg/kg/injection, schedule: Q01DX015 (ip), vehicle: saline): 6 of 6 | T/C (dose: 96.0 mg/kg/injection, schedule: Q## X003 (oral), vehicle: saline): 145 % of control | survivor count (dose: 96.0 mg/kg/injection, schedule: Q## X040 (oral), vehicle: saline): 6 of 6 | T/C (dose: 178.0 mg/kg/injection, schedule: Q01DX001 (oral), vehicle: saline): 128 % of control | T/C (dose: 178.0 mg/kg/injection, schedule: Q## X008 (oral), vehicle: saline): 143 % of control | survivor count (dose: 192.0 mg/kg/injection, schedule: Q01DX005 (oral), vehicle: saline): 6 of 6 | survivor count (dose: 192.0 mg/kg/injection, schedule: Q01DX009 (oral), vehicle: saline): 10 of 10 | survivor count (dose: 192.0 mg/kg/injection, schedule: Q01DX015 (im), vehicle: saline): 6 of 6 | survivor count (dose: 192.0 mg/kg/injection, schedule: Q01DX015 (ip), vehicle: saline): 3 of 6 | survivor count (dose: 192.0 mg/kg/injection, schedule: Q01DX015 (oral), vehicle: saline): 5 of 6 | survivor count (dose: 192.0 mg/kg/injection, schedule: Q01DX015 (sc), vehicle: saline): 6 of 6 | T/C (dose: 192.0 mg/kg/injection, schedule: Q## X003 (oral), vehicle: saline): 135 % of control | survivor count (dose: 192.0 mg/kg/injection, schedule: Q## X040 (oral), vehicle: saline): 5 of 6 | T/C (dose: 356.0 mg/kg/injection, schedule: Q01DX001 (oral), vehicle: saline): 147 % of control | survivor count (dose: 384.0 mg/kg/injection, schedule: Q01DX005 (oral), vehicle: saline): 10 of 10 | survivor count (dose: 384.0 mg/kg/injection, schedule: Q01DX009 (oral), vehicle: saline): 10 of 10 | survivor count (dose: 384.0 mg/kg/injection, schedule: Q01DX015 (im), vehicle: saline): 1 of 6 | survivor count (dose: 384.0 mg/kg/injection, schedule: Q01DX015 (ip), vehicle: saline): 0 of 6 | survivor count (dose: 384.0 mg/kg/injection, schedule: Q01DX015 (oral), vehicle: saline): 3 of 6 | survivor count (dose: 384.0 mg/kg/injection, schedule: Q01DX015 (sc), vehicle: saline): 6 of 6 | survivor count (dose: 384.0 mg/kg/injection, schedule: Q## X040 (oral), vehicle: saline): 2 of 6 | survivor count (dose: 712.0 mg/kg/injection, schedule: Q## X008 (oral), vehicle: saline): 9 of 10 | survivor count (dose: 768.0 mg/kg/injection, schedule: Q01DX005 (oral), vehicle: saline): 9 of 10 | survivor count (dose: 768.0 mg/kg/injection, schedule: Q## X024 (oral), vehicle: saline): 3 of 10 | survivor count (dose: 1000.0 mg/kg/injection, schedule: Q## X008 (oral), vehicle: saline): 3 of 10 | survivor count (dose: 1000.0 mg/kg/injection, schedule: Q## X024 (oral), vehicle: saline): 6 of 10

CCCCSP(=O)(SCCCC)N1CCCCC1
survivor count (dose: 100.0 mg/kg/injection, schedule: Q04DX002 (ip), vehicle: saline with Tween-80): 2 of 3 | survivor count (dose: 200.0 mg/kg/injection, schedule: Q04DX002 (ip), vehicle: saline with Tween-80): 2 of 3 | survivor count (dose: 400.0 mg/kg/injection, schedule: Q04DX002 (ip), vehicle: saline with Tween-80): 0 of 3

ClC1=C(Cl)C(Cl)=C(Cl)C1=Cc1ccccc1
survivor count (dose: 12.5 mg/kg/injection, schedule: Q01DX009 (ip), vehicle: saline with Tween-80): 6 of 6 | survivor count (dose: 25.0 mg/kg/injection, schedule: Q01DX009 (ip), vehicle: saline with Tween-80): 1 of 6 | survivor count (dose: 50.0 mg/kg/injection, schedule: Q01DX009 (ip), vehicle: saline with Tween-80): 0 of 6 | survivor count (dose: 100.0 mg/kg/injection, schedule: Q01DX009 (ip), vehicle: saline with Tween-80): 0 of 6 | survivor count (dose: 100.0 mg/kg/injection, schedule: Q04DX002 (ip), vehicle: Klucel (hydroxypropylcellulose) (HPC)): 3 of 3
